The test in a line: IkB Signaling. The following applies: ABC-DLBCL IkBa-CBG/CBR dual luciferase ratio (green luciferase fused to IkBa over red control in OCI-Ly3 lymphoma cells), 4 h. The gist of the method:
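Luminescence ratio of IκBα-fused green versus native red beetle luciferase in OCI-Ly3 cells, 4 h post-doxycycline with compound; red signal alone, scaled from basal (0%) to zero light (-100%), flagged nonspecific or cytotoxic effects.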

Where [1] appears, read: measured here: control luc red channel unless noted.

The list shows a part of the results. These are further read-outs of the screen, such as a control signal, another cell line or another target. No call is given for them. Compounds called inactive in the main read-out are mostly missing here. Potencies come from curve fits of mixed quality, noted in brackets.

For the compound `COc1ccc(CCN(Cc2cc3cccc(C)c3[nH]c2=O)C(=O)N2CCCC2)cc1OC`, the AC50 – broadly, the concentration at which the activity in the assay is half-maximal – under setting [1] is 15.8 µM [falling, single point] [measured here: IkB-luc green channel].

With `COc1ccc2nc(SCc3nc(N)nc(Nc4ccccc4)n3)[nH]c2c1`, the AC50 under setting [1] was 12.6 µM [falling, partial curve]. As for `Oc1ccc(NCc2ccccc2OCc2ccc(Cl)cc2)cc1`, under setting [1], the AC50 was 25.1 µM [falling, partial curve]. Regarding `COC(=O)c1ccccc1NC(=O)N1CCC(N2CCN(Cc3ccc(F)cc3)C(=O)C2=O)CC1`, the AC50 under setting [1] is 1 µM [rising, full curve]. As for `Cc1ccc(NC(=O)/C=C\C(=O)N(c2ccc(C(C)C)cc2)C(C(=O)NCc2ccco2)c2ccc(F)cc2)cc1` (configuration not stated), the AC50 under setting [1] was 15.8 µM [falling, partial curve]. In the case of `COc1ccc2c(Sc3ccc(C)cc3)c(C(=O)NC(C)C)[nH]c2c1`, under setting [1], the AC50 was 12.6 µM [falling, partial curve]. As to `O=c1oc2ccccc2c(N2CCN(c3ccccc3F)CC2)c1CN1CCCC1`, under setting [1], the concentration at half-maximal activity (AC50) was 39.8 µM [falling, partial curve].

On to `Cc1cccc(CNC(=O)Cn2ccc3cc(S(=O)(=O)N4CCCCCC4)ccc32)c1`, for which the AC50 under setting [1] is 2.51 µM [falling, full curve, poor fit].

In the case of `CCCCSc1nnc(-c2cc(Br)ccc2N)c(=O)[nH]1`, the AC50 under setting [1] was 20 µM [falling, partial curve]. As for `CCCc1cc(=O)n2[nH]c(CCc3ccccc3)nc2n1`, the AC50 under setting [1] was 15.8 µM [falling, partial curve]. As to `CCCc1cc(=O)oc2cc(C)c3c(-c4ccccc4)coc3c12`, the AC50 under setting [1] is 3.16 µM [rising, full curve, poor fit]. As to `Cc1ccc(NC(=O)CC2Nc3ccccc3NC2=O)cc1C` (configuration not stated), under setting [1], the AC50 is 0.316 µM [rising, partial curve]. `CCCNC(=O)CN1C(=O)CSc2ccc(S(=O)(=O)N3CCC(C)CC3)cc21`: the AC50 under setting [1] is 25.1 µM [falling, single point]. With `CCOc1ccc(NC(=O)c2cc(S(=O)(=O)NC3CCCCCC3)ccc2F)cc1`, under setting [1], the AC50 is 25.1 µM [falling, partial curve]. Take `Cc1ccccc1-c1noc(-c2ccc(NCc3ccco3)c([N+](=O)[O-])c2)n1`: the concentration at half-maximal activity (AC50) under setting [1] is 3.16 µM [falling, partial curve]. As to `COc1ccc2c(c1)CCc1c(C(=O)Nc3c(C)nn(Cc4ccccc4)c3C)noc1-2`, the AC50 under setting [1] was 10 µM [falling, partial curve]. For the compound `CC(C)(C)NC(=O)c1oc2ccccc2c1NC(=O)c1ccccc1F`, under setting [1], the AC50 was 15.8 µM [falling, partial curve].

As to `Cc1ccc(S(=O)(=O)Nc2ccc3nc(-c4ccc(F)cc4)oc3c2)cc1`, under setting [1], the AC50 is 25.1 µM [falling, partial curve]. On to `COc1cc(NC(=O)Cn2c(=O)ccc3cc(S(=O)(=O)N4CCCC4)ccc32)cc(OC)c1`, for which, under setting [1], the AC50 is 31.6 µM [falling, single point]. On to `Cc1ccc(CNC(=O)c2c(C)oc3ncnc(N4CCOCC4)c23)cc1`, for which, under setting [1], the AC50 is 20 µM [falling, single point]. Take `COc1ccc(/C=C\c2onc(C)c2S(=O)(=O)N2CCC(C(=O)Nc3cccc(OC)c3)CC2)cc1`: the AC50 under setting [1] was 6.31 µM [falling, partial curve].

Turning to `O=C(CSc1ncnc2c1oc1ccccc12)N1CCCc2ccccc21`, the AC50 under setting [1] is 12.6 µM [falling, partial curve].

For `Cc1cc(C)c2c(CC(=O)N(Cc3ccc(Cl)cc3)Cc3ccco3)coc2c1`, the AC50 under setting [1] was 12.6 µM [falling, partial curve].

Consider `Cc1c(-c2ccccc2)nc2c(Cl)cccc2c1C(=O)OCC(=O)c1ccc(F)cc1`, for which the AC50 under setting [1] was 3.98 µM [falling, full curve]. Turning to `COc1cc(OC)c(N(C)C(=O)c2c(C)oc3ncn(CC(C)C)c(=O)c23)cc1Cl`, the AC50 under setting [1] was 7.94 µM [rising, single point].

As to `CCOc1ccccc1C(=O)N(Cc1sccc1C)C1CCS(=O)(=O)C1` (configuration not stated), under setting [1], the AC50 is 20 µM [falling, partial curve, poor fit]. In the case of `COc1ccc(-c2cc(C(F)(F)F)nc(SCC(=O)NCCc3ccccc3)n2)cc1`, the AC50 under setting [1] was 15.8 µM [rising, partial curve]. Same read-out and setting: the figure for `N#Cc1c(-n2ncnc2-c2ccc(F)cc2)sc2c1CCCCC2` is 0.126 µM [falling, full curve]. For `O=C(CSCc1cnn(-c2ccccc2)c1-n1cccc1)NCc1cccc(Cl)c1`, the AC50 under setting [1] is 6.31 µM [rising, single point]. Take `COc1ccc(CC(=O)N2CC3(C)CC2CC(C)(C)C3)cc1OC` (configuration not stated): under setting [1], the AC50 is 12.6 µM [falling, partial curve]. Take `CSc1ccc(CCNC(=O)c2ccc3c(Cl)c4c(nc3c2)CCCC4)cc1`: the AC50 under setting [1] is 3.16 µM [falling, full curve]. With `CCCSc1ncc(Cl)c(C(=O)Nc2nc3ccc(C)cc3s2)n1`, the AC50 under setting [1] is 31.6 µM [falling, partial curve, poor fit]. `Cc1ccc(C)c(N2CCN(C(=O)C3CCN(S(=O)(=O)c4c(C)noc4C)CC3)CC2)c1`: under setting [1], the AC50 was 15.8 µM [falling, partial curve]. For `O=C(Cn1cnnn1)OCC(=O)c1ccc(Cl)s1`, the AC50 under setting [1] was 1 µM [falling, full curve]. On the same count and under the same terms, the figure for `O=C(Nc1cccnc1)c1ccc(Cl)c(S(=O)(=O)N2CCCCCC2)c1` is 12.6 µM [falling, partial curve]. As for `CC1CCCC(C)N1C(=O)CN1CCN(c2nc(-c3ccc(F)cc3)cs2)CC1` (configuration not stated), the AC50 was 31.6 µM [falling, single point] (measured here: IkB-luc green channel) and 25.1 µM [falling, partial curve] (measured here: control luc red channel).

For the compound `COc1ccc(S(=O)(=O)c2c(O)c3ccc(C(=O)Nc4ccccc4)cc3[nH]c2=O)cc1`, the AC50 under setting [1] was 12.6 µM [falling, partial curve].

As to `Cc1nn(C)cc1CN(C)C(=O)c1sc2cccc(Cl)c2c1Cl`, the AC50 under setting [1] is 6.31 µM [falling, partial curve]. As for `Cc1ccc(Cl)cc1NC(=O)C1CCCN(c2cnccn2)C1` (configuration not stated), under setting [1], the AC50 is 12.6 µM [falling, partial curve]. Regarding `CCc1nn(CC(=O)Nc2cccc(C(C)=O)c2)c(=O)c2cc3sccc3n12`, the AC50 under setting [1] was 1 µM [rising, full curve, poor fit]. Same read-out and setting: the figure for `CCS(=O)(=O)c1ncc(Cl)c(C(=O)NCc2ccc(OC)cc2)n1` is 7.94 µM [falling, full curve]. Consider `Cc1cccc(-c2noc(CN(C(=O)c3ccc(Br)o3)C(C)C)n2)c1`, for which, under setting [1], the AC50 was 25.1 µM [falling, partial curve]. With `CCOC(=O)c1ccccc1NC(=O)Cn1c(=O)n(Cc2nc(C)no2)c(=O)c2ccccc21`, the AC50 under setting [1] was 1 µM [falling, full curve, poor fit]. In the case of `O=C(CCn1c(=O)c2ccccc2n(Cc2cccc(Cl)c2)c1=O)NCCc1ccccc1`, under setting [1], the AC50 was 15.8 µM [falling, partial curve]. Take `O=C(NCC1(c2ccccc2)CCCC1)C(=O)Nc1cccc(Br)c1`: the AC50 under setting [1] is 0.316 µM [rising, full curve, poor fit].

Turning to `O=C1CCCC2=C1C(c1cccs1)n1nc(SCc3ccccc3F)nc1N2` (configuration not stated), the AC50 under setting [1] was 20 µM [falling, partial curve]. Regarding `COc1cc(Nc2ncc3c(n2)CCN(Cc2cccc(C)c2)C3)cc(OC)c1`, the concentration at half-maximal activity (AC50) under setting [1] was 12.6 µM [falling, partial curve]. Take `Cc1oc2c(C)c3oc(=O)c(CC(=O)N4CCCCC4)c(C)c3cc2c1C`: the AC50 under setting [1] is 31.6 µM [falling, single point].

As to `COc1ccc(CCNc2oc(COc3ccccc3F)nc2C#N)cc1`, the AC50 under setting [1] is 15.8 µM [falling, partial curve]. Consider `CCc1ccc(C2CC(=O)N3CN(c4ccccc4)CSC3=C2C#N)cc1` (configuration not stated), for which, under setting [1], the AC50 was 10 µM [falling, partial curve]. `COc1cccc(C(=O)Nc2nc(-c3ccc(Br)cc3)ns2)c1`: the AC50 under setting [1] is 3.98 µM [falling, full curve]. As to `Cc1ccccc1OCCn1c(CCNC(=O)C2CCCCC2)nc2ccccc21`, the AC50 under setting [1] was 31.6 µM [falling, single point]. Same read-out and setting: the figure for `CC(C)(C)C(=O)Nc1ccccc1C(=O)OCc1cc(=O)n2ccsc2n1` is 6.31 µM [falling, full curve]; for `COCc1nnc(NC(=O)c2sc3ccccc3c2Cl)s1` it is 12.6 µM [falling, partial curve]. For `CCc1ccccc1-n1nnc(-c2nsc(NC(=O)c3ccc(C)c(C)c3)n2)c1C`, the AC50 under setting [1] is 15.8 µM [falling, partial curve].

Consider `COCCCNC(=O)CSC1=Nc2ccccc2C2=NC(CCC(=O)NCc3ccc(OC)cc3)C(=O)N12` (configuration not stated), for which the AC50 under setting [1] was 6.31 µM [rising, partial curve, poor fit].

Take `Cc1oc(-c2ccc(Cl)cc2)nc1CN1CCCC(C(=O)NCc2ccccc2)C1` (configuration not stated): under setting [1], the AC50 is 12.6 µM [falling, partial curve].

Consider `C=Cc1c(C)c2cc3nc(cc4[nH]c(cc5nc(cc1[nH]2)C(C)=C5CCC(=O)O)c(CCC(=O)OC)c4C)[C@@]1(C)C3=CC=C(C(=O)OC)[C@H]1C(=O)OC` (tested in a mixture with another compound), for which the AC50 under setting [1] was 10 µM [falling, partial curve]. For the compound `CCN1CCN(C(c2ccccc2Cl)c2c(O)cc(C)n(CCOC)c2=O)CC1` (configuration not stated), the AC50 under setting [1] was 0.0501 µM [falling, full curve, poor fit].

For `Cc1nnc(NC(=O)c2ccc(S(=O)(=O)N(C)Cc3ccccc3)cc2)o1`, under setting [1], the half-maximal activity concentration (AC50) was 6.31 µM [rising, single point] [measured here: IkB-luc green channel]. On the same count and under the same terms, the figure for `Cc1cc(SCC(=O)NC(=O)NCc2ccco2)nc2c(C)cccc12` is 25.1 µM [rising, partial curve] [measured here: IkB-luc green channel].
